Binding data for 4 molecules are collected here from publication PMC4169592.

These are yes or no findings as the source states them, for the method shown. A result given as binding can be weak or reduced; the word gives no strength. For some assays here: In cells and extracts the contact can be indirect. For some assays here: Where a sequence is shown, tags or fusion partners need not be part of it.

One assay concerns the target T1, myc-tagged CPEB2 (UniProt Q812E0).
T1 sequence: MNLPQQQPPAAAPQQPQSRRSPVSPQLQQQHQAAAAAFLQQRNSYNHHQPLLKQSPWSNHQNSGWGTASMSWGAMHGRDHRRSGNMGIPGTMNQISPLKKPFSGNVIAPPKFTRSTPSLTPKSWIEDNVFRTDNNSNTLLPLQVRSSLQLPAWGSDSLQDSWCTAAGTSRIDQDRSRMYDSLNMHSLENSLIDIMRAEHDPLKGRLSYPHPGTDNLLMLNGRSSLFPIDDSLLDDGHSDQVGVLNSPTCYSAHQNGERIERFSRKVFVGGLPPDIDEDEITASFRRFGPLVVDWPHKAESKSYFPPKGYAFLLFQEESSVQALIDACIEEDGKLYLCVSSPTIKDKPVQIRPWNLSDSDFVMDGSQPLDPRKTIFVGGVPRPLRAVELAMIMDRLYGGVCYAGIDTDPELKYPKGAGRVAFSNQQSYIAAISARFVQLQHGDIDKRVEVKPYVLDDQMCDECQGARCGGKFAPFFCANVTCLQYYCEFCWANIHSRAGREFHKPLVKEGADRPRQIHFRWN
Put plainly: co-IP; 293T cells co-transfected with two or three plasmids; lysed in IP buffer (50 mM Tris pH 7.4, 150 mM NaCl, 0.5 mM EDTA, 0.5% NP40, 20% glycerol, 1 mM DTT, 100 µg/ml RNaseA), 4°C; protein G beads with myc, flag or GFP antibody, western blot; some cells treated with arsenite ± PD98059, SB2035800, SP600125 or with wt or DN-JNK1. Background: Immunoblotting shows a protein as a band on a membrane.

The target in the next assay is T2, myc-tagged CPEB3 (UniProt Q7TN99).
T2 sequence: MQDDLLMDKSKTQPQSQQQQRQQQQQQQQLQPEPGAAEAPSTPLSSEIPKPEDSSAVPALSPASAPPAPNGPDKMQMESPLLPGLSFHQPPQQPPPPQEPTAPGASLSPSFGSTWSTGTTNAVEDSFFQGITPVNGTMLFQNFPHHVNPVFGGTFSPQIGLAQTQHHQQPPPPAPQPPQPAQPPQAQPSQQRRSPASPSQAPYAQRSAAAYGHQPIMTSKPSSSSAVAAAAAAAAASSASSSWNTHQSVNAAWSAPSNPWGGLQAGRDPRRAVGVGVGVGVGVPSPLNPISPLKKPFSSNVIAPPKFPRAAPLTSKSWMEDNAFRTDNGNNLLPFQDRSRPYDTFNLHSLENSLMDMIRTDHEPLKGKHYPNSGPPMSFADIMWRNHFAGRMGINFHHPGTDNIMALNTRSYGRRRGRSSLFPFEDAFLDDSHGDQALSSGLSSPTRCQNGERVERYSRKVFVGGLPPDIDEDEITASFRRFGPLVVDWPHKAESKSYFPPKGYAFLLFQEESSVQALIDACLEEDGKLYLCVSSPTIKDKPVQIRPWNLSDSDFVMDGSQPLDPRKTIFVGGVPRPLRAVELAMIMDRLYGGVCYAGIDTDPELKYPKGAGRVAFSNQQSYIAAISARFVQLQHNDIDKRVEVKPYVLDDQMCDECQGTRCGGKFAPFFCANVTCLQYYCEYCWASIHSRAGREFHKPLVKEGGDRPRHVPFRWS
The assay is described as above.

The target in assay [1] is T3, flag-tagged Vinexin α (mouse) (UniProt Q9R1Z8).
T3 sequence: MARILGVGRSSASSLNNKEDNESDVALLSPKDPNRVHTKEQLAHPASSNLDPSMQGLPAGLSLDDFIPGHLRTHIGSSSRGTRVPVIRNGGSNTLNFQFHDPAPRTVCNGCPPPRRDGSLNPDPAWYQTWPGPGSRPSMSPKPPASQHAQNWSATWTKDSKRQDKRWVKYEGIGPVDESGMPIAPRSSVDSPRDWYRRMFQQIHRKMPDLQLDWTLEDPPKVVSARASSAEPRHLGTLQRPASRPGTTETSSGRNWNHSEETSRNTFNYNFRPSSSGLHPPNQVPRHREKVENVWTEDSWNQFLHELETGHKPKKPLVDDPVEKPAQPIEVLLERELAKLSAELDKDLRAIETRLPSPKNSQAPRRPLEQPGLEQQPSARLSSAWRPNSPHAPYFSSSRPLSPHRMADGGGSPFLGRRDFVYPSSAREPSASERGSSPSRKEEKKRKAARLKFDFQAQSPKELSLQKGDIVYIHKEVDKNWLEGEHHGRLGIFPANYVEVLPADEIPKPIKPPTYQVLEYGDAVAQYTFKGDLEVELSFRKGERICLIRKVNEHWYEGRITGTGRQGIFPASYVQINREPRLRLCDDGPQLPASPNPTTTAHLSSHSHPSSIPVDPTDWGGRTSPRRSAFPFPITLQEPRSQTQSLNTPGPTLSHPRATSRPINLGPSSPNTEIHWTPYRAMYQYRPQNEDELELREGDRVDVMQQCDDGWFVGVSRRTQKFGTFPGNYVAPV
Described as above.

The target in the next assay is EGFP-Vinexin β (mouse). Kind of assay: co-IP; 293T cells overexpressing EGFP-Vinexin β or EGFP, ± arsenite, mildly crosslinked with 0.8% formaldehyde, lysed in IP buffer, sonicated; IP with GFP antibody, blot for endogenous CPEB4.
Assay [2] has as its target N-terminus of CPEB4 (a.a. 1–458), yeast two-hybrid bait (rat). Put plainly: two-hybrid; yeast two-hybrid screen: N-terminal 458 a.a. of rat CPEB4 (pGBKT7) as bait against a mouse brain cDNA library.

Regarding flag-tagged Vinexin β (mouse), the binding result with myc-tagged CPEB2 and in the assay with myc-tagged CPEB3 was “binds” throughout.

As for myc-tagged CPEB4 (rat), in assay [1], the binding entry is on record as “binds”.

B1: endogenous CPEB4 of 293T cells (protein, UniProt Q17RY0 1-729)
chain: MGDYGFGVLVQSNTGNKSAFPVRFHPHLQPPHHHQNATPSPAAFINNNTAANGSSAGSAWLFPAPATHNIQDEILGSEKAKSQQQEQQDPLEKQQLSPSPGQEAGILPETEKAKSEENQGDNSSENGNGKEKIRIESPVLTGFDYQEATGLGTSTQPLTSSASSLTGFSNWSAAIAPSSSTIINEDASFFHQGGVPAASANNGALLFQNFPHHVSPGFGGSFSPQIGPLSQHHPHHPHFQHHHSQHQQQRRSPASPHPPPFTHRNAAFNQLPHLANNLNKPPSPWSSYQSPSPTPSSSWSPGGGGYGGWGGSQGRDHRRGLNGGITPLNSISPLKKNFASNHIQLQKYARPSSAFAPKSWMEDSLNRADNIFPFPDRPRTFDMHSLESSLIDIMRAENDTIKGRLNYSYPGSDSSLLINARTYGRRRGQSSLFPMEDGFLDDGRGDQPLHSGLGSPHCFSHQNGERVERYSRKVFVGGLPPDIDEDEITASFRRFGPLIVDWPHKAESKSYFPPKGYAFLLFQDESSVQALIDACIEEDGKLYLCVSSPTIKDKPVQIRPWNLSDSDFVMDGSQPLDPRKTIFVGGVPRPLRAVELAMIMDRLYGGVCYAGIDTDPELKYPKGAGRVAFSNQQSYIAAISARFVQLQHGEIDKRVEVKPYVLDDQLCDECQGARCGGKFAPFFCANVTCLQYYCEYCWAAIHSRAGREFHKPLVKEGGDRPRHISFRWN
Regarding B1, the binding entry with EGFP-Vinexin β (mouse) was “binds”.

B2: Vinexin α a.a. 483–633 (yeast two-hybrid clone) (domain or fragment, UniProt Q9R1Z8 483-633)
chain: EGEHHGRLGIFPANYVEVLPADEIPKPIKPPTYQVLEYGDAVAQYTFKGDLEVELSFRKGERICLIRKVNEHWYEGRITGTGRQGIFPASYVQINREPRLRLCDDGPQLPASPNPTTTAHLSSHSHPSSIPVDPTDWGGRTSPRRSAFPFP
Take B2: the binding entry in assay [2] was “binds”.
